From the supplement of paper PMC8728848
The list shows a part of the results.

Experiments:
Assay in all cases: glycan array binding signal (z-score within array); higher = stronger binding
Details in all cases: glycan notation: IUPAC condensed, linker removed
[1] = target: Gal(b1-3)GlcNAc(b1-6)GalNAc
Outline: (§1)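 Glycan array data were curated from 3228 arrays in the Consortium for Functional Glycomics database and kept only where the protein sequence was available. Glycan names were converted to IUPAC-condensed notation, and columns mapping to the same glycan were averaged. The binding signal is a within-array Z-score, averaged across arrays of the same protein sequence at different concentrations or buffers and across linkers. Negative Z-scores can be read as non-binding.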

[2] = target: Gal(b1-3)GlcNAc(b1-6)[Gal(b1-3)]GalNAc
Outline: as §1

[3] = target: Gal(b1-3)GlcNAc6S
Outline: as §1

[4] = target: Gal(b1-3)[Fuc(a1-4)]GlcNAc
Outline: as §1

[5] = target: Gal(b1-3)[Fuc(a1-4)]GlcNAc(b1-2)Man
Outline: as §1

[6] = target: Gal(b1-3)[Fuc(a1-4)]GlcNAc(b1-2)Man(a1-3)[Gal(b1-3)[Fuc(a1-4)]GlcNAc(b1-2)Man(a1-6)]Man(b1-4)GlcNAc(b1-4)[Fuc(a1-6)]GlcNAc
Outline: as §1

[7] = target: Gal(b1-3)[Fuc(a1-4)]GlcNAc(b1-3)Gal(b1-3)[Fuc(a1-4)]GlcNAc
Outline: as §1

[8] = target: Gal(b1-3)[Fuc(a1-4)]GlcNAc(b1-3)Gal(b1-4)[Fuc(a1-3)]GlcNAc
Outline: as §1

[9] = target: Gal(b1-3)[Fuc(a1-4)]GlcNAc(b1-6)GalNAc
Outline: as §1

[10] = target: Gal(b1-3)[GlcNAc(b1-6)]GalNAc
Outline: as §1

[11] = target: Gal(b1-3)[Neu5Ac(a2-6)]GalNAc
Outline: as §1

[12] = target: Gal(b1-3)[Neu5Ac(a2-6)]GlcNAc(b1-4)Gal(b1-4)Glc
Outline: as §1

[13] = target: Gal(b1-3)[Neu5Ac(b2-6)]GalNAc
Outline: as §1

[14] = target: Gal(b1-4)Gal
Outline: as §1

[15] = target: Gal(b1-4)GalNAc(a1-3)[Fuc(a1-2)]Gal(b1-4)GlcNAc
Outline: as §1

[16] = target: Gal(b1-4)GalNAc(b1-3)[Fuc(a1-2)]Gal(b1-4)GlcNAc
Outline: as §1

[17] = target: Gal(b1-4)Glc
Outline: as §1

[18] = target: Gal(b1-4)Glc6S
Outline: as §1

[19] = target: Gal(b1-4)GlcNAc
Outline: as §1

[20] = target: Gal(b1-4)GlcNAc(a1-6)Gal(b1-4)GlcNAc
Outline: as §1

[21] = target: Gal(b1-4)GlcNAc(b1-2)Man
Outline: as §1

[22] = target: Gal(b1-4)GlcNAc(b1-2)Man(a1-3)Man(b1-4)GlcNAc(b1-4)GlcNAc
Outline: as §1

[23] = target: Gal(b1-4)GlcNAc(b1-2)Man(a1-3)[Gal(b1-4)GlcNAc(b1-2)Man(a1-6)]Man(b1-4)GlcNAc(b1-4)GlcNAc
Outline: as §1

[24] = target: Gal(b1-4)GlcNAc(b1-2)Man(a1-3)[Gal(b1-4)GlcNAc(b1-2)Man(a1-6)]Man(b1-4)GlcNAc(b1-4)[Fuc(a1-6)]GlcNAc
Outline: as §1

[25] = target: Gal(b1-4)GlcNAc(b1-2)Man(a1-3)[Gal(b1-4)GlcNAc(b1-2)Man(a1-6)][Gal(b1-4)GlcNAc(b1-4)]Man(b1-4)GlcNAc(b1-4)[Fuc(a1-6)]GlcNAc
Outline: as §1

[26] = target: Gal(b1-4)GlcNAc(b1-2)Man(a1-3)[Gal(b1-4)GlcNAc(b1-2)Man(a1-6)][GlcNAc(b1-4)]Man(b1-4)GlcNAc(b1-4)[Fuc(a1-6)]GlcNAc
Outline: as §1

[27] = target: Gal(b1-4)GlcNAc(b1-2)Man(a1-3)[GlcNAc(b1-2)Man(a1-6)]Man(b1-4)GlcNAc(b1-4)GlcNAc
Outline: as §1

[28] = target: Gal(b1-4)GlcNAc(b1-2)Man(a1-3)[GlcNAc(b1-4)][Gal(b1-4)GlcNAc(b1-2)Man(a1-6)]Man(b1-4)GlcNAc(b1-4)GlcNAc
Outline: as §1

[29] = target: Gal(b1-4)GlcNAc(b1-2)Man(a1-3)[Man(a1-6)]Man(b1-4)GlcNAc(b1-4)GlcNAc
Outline: as §1

[30] = target: Gal(b1-4)GlcNAc(b1-2)Man(a1-6)Man(b1-4)GlcNAc(b1-4)GlcNAc
Outline: as §1

[31] = target: Gal(b1-4)GlcNAc(b1-2)Man(a1-6)[GlcNAc(b1-2)Man(a1-3)]Man(b1-4)GlcNAc(b1-4)GlcNAc
Outline: as §1

[32] = target: Gal(b1-4)GlcNAc(b1-2)Man(a1-6)[Man(a1-3)]Man(b1-4)GlcNAc(b1-4)GlcNAc
Outline: as §1

[33] = target: Gal(b1-4)GlcNAc(b1-2)[Gal(b1-4)GlcNAc(b1-4)]Man(a1-3)[Gal(b1-4)GlcNAc(b1-2)Man(a1-6)]Man(b1-4)GlcNAc(b1-4)GlcNAc
Outline: as §1

[34] = target: Gal(b1-4)GlcNAc(b1-2)[Gal(b1-4)GlcNAc(b1-4)]Man(a1-3)[Gal(b1-4)GlcNAc(b1-2)[Gal(b1-4)GlcNAc(b1-6)]Man(a1-6)]Man(b1-4)GlcNAc(b1-4)GlcNAc
Outline: as §1

[35] = target: Gal(b1-4)GlcNAc(b1-2)[Gal(b1-4)GlcNAc(b1-4)]Man(a1-3)[GlcNAc(b1-4)][Gal(b1-4)GlcNAc(b1-2)Man(a1-6)]Man(b1-4)GlcNAc(b1-4)GlcNAc
Outline: as §1

[36] = target: Gal(b1-4)GlcNAc(b1-2)[Gal(b1-4)GlcNAc(b1-4)]Man(a1-3)[GlcNAc(b1-4)][Gal(b1-4)GlcNAc(b1-2)[Gal(b1-4)GlcNAc(b1-6)]Man(a1-6)]Man(b1-4)GlcNAc(b1-4)GlcNAc
Outline: as §1

[37] = target: Gal(b1-4)GlcNAc(b1-2)[Gal(b1-4)GlcNAc(b1-6)]Man(a1-6)[Gal(b1-4)GlcNAc(b1-2)Man(a1-3)]Man(b1-4)GlcNAc(b1-4)GlcNAc
Outline: as §1

B1: AT1G77380(17) (Arabidopsis thaliana), Q39134 (protein)
chain: MVQNHQTVLAVDMPQTGGSKYLDDDGKNKRTGSVWTASAHIITAVIGSGVLSLAWATAQLGWLAGPVVMLLFSAVTYFTSSLLAACYRSGDPISGKRNYTYMDAVRSNLGGVKVTLCGIVQYLNIFGVAIGYTIASAISMMAIKRSNCFHKSGGKDPCHMNSNPYMIAFGLVQILFSQIPDFDQLWWLSILAAVMSFTYSSAGLALGIAQVVVNGKVKGSLTGISIGAVTETQKIWRTFQALGDIAFAYSYSIILIEIQDTVKSPPSEEKTMKKATLVSVSVTTMFYMLCGCMGYAAFGDLSPGNLLTGFGFYNPYWLLDIANAAIVIHLIGAYQVYCQPLFAFIEKQASIQFPDSEFIAKDIKIPIPGFKPLRLNVFRLIWRTVFVIITTVISMLLPFFNDVVGLLGALGFWPLTVYFPVEMYIAQKKIPRWSTRWVCLQVFSLGCLVVSIAAAAGSIAGVLLDLKSYKPFRSEY
[1]
  glycan array binding signal (z-score): -0.829
[2]
  glycan array binding signal (z-score): -0.631
[3]
  glycan array binding signal (z-score): -0.412
[4]
  glycan array binding signal (z-score): 0.63
[5]
  glycan array binding signal (z-score): 0.006
[6]
  glycan array binding signal (z-score): 0.88
[7]
  glycan array binding signal (z-score): -0.552
[8]
  glycan array binding signal (z-score): -0.402
[9]
  glycan array binding signal (z-score): 0.07
[10]
  glycan array binding signal (z-score): -0.619
[11]
  glycan array binding signal (z-score): -0.4
[12]
  glycan array binding signal (z-score): -0.793
[13]
  glycan array binding signal (z-score): 0.022
[14]
  glycan array binding signal (z-score): 0.294
[15]
  glycan array binding signal (z-score): -0.627
[16]
  glycan array binding signal (z-score): -0.719
[17]
  glycan array binding signal (z-score): 0.29
[18]
  glycan array binding signal (z-score): -0.23
[19]
  glycan array binding signal (z-score): -0.639
[20]
  glycan array binding signal (z-score): 2.75
[21]
  glycan array binding signal (z-score): 1.05
[22]
  glycan array binding signal (z-score): -0.118
[23]
  glycan array binding signal (z-score): -0.144
[24]
  glycan array binding signal (z-score): -0.273
[25]
  glycan array binding signal (z-score): -0.548
[26]
  glycan array binding signal (z-score): -0.277
[27]
  glycan array binding signal (z-score): -0.757
[28]
  glycan array binding signal (z-score): -0.793
[29]
  glycan array binding signal (z-score): -0.935
[30]
  glycan array binding signal (z-score): 1.06
[31]
  glycan array binding signal (z-score): -0.742
[32]
  glycan array binding signal (z-score): 1.66
[33]
  glycan array binding signal (z-score): 2.4
[34]
  glycan array binding signal (z-score): -0.811
[35]
  glycan array binding signal (z-score): -0.107
[36]
  glycan array binding signal (z-score): -0.498
[37]
  glycan array binding signal (z-score): 1.34
